Results are given in words; binding and its absence hold for the method and conditions named. For part of these data: In cells and extracts the contact can be indirect. Some results given as binding are weak or reduced against the parent protein; the word gives no strength.
Columns and labels:
[1] = molecular target: FABP3-mCherry (UniProt P05413); assay: FRET or BRET; competition: 50 μM synthetic αSynP130-140 added to the culture of N2a cells co-expressing GFP-αSyn and FABP3-mCherry; loss of the FRET signal; only the binder purified
[2] = molecular target: FABP3 with N-terminal His6 tag (UniProt P05413); assay: quartz crystal microbalance (QCM); His6-FABP3 (or FABP3 F16S) immobilised on the gold-plated quartz sensor through Ni-NTA groups; αSyn, its variants or peptides added at varying concentrations; room temperature; 50 mM Tris-HCl pH 7.4; kobs = koff + kon[αSyn], Kd from kon and koff (AQUA 2.0); both purified

Binder | binding [1] | binding [2]
EEGYQDYEPEA [αSynP130-140] | binds | –
DVFMKGLSKA [αSynP2-10] | – | no binding
GVTAVAQKTVEGAGSIAAATGFVK [αSynP73-96] | – | no binding

Source: PMC8131325
